Results taken from paper PMC6802093, “Structural characterization of HypX responsible for CO biosynthesis in the maturation of NiFe-hydrogenase” (Communications Biology, 2019).
These are yes or no findings as the source states them, for the method shown.

Target: A. aeolicus HypD (Aquifex aeolicus) (UniProt O67225)
Assay: SEC; Superdex75 10/300GL, 50 mM Tris-HCl (pH 8.0), 200 mM NaCl, 1 mM DTT; HypC alone, HypD alone, and HypC and HypD mixed in equal molar amount; apparent masses; both purified

binding: no binding
B1: A. aeolicus HypD (protein, UniProt O67225 1-380)
chain: MRVEEISIFEAYKDKERVLKLSEKIKKLSEKIGRTVNIMEFCGGHTHAIMKYGIDQLLKGVVRFIHGPGCPVCVMPMQRIDLAIELAKRKDVIMCSYGDLLRVPGSKRKSLLNVRAEGADVRMVYSCLDTLKIAKENPDKKVIFFAIGFETTTPQTAVLIKKAKEEGIKNLFVVSNHVITPAAIQHILNAPEIREIGKVEIDAFIGPGHVSVIIGTKPYHYFAEEFQKPVVIAGFEPLNVLKAVYLILKQIYKGRAEVKNNYTRFVTYKGNLKAQNLVAELFELRKEFEWRGLGTIPYSALKIRKEYEEFDAEKVFEVELPEPKEHPACICGKVIRGVARPTDCKLFGTVCTPSNPLGSCMVSSEGACAAYYKYRRALVQ
